What is called cell viability is a read-out of living cells in per cent, often relative to untreated cells.

The assay deals with RAW 264.7. Put plainly: cell viability (MTT) relative to vehicle control; higher = more viable cells. The conditions noted are these: stimulus: HMGB1 5 ug/ml, 18 h.
[1] abbreviates: compound concentration: 1 ug/ml.

Values joined by “and” are separate entries in the source; they are usually repeats but may differ in a detail not shown here. Equal values may be shown once. Where a name gives a salt, the structure may show the parent alone. ± gives the standard deviation of the averaged measurements. The list shows a part of the results. Single values are uncertain, as repeats are few or missing.

As to `O=C(O)C(=O)O.[NH-][C@@H]1CCCC[C@H]1[NH-].[Pt+2]` [Oxaliplatin], the cell viability (compound concentration: 3 uM) came out at 93.8%.

Take `O=C(C1CCCCC1)N1CC(=O)N2CCc3ccccc3C2C1` (stereo not given): the cell viability (compound concentration: 3 uM) worked out at 102%. In the case of `O=C(C1CCCCC1)N1CC(=O)N2CCc3ccccc3C2C1` (stereo not given) [Praziquantel], the cell viability (compound concentration: 3 uM) came to 98.6 ± 5%. As to `CO[C@H]1/C=C/O[C@@]2(C)Oc3c(C)c(O)c4c(O)c(cc(O)c4c3C2=O)NC(=O)/C(C)=C\C=C\[C@H](C)[C@H](O)[C@@H](C)[C@@H](O)[C@@H](C)[C@H](OC(C)=O)[C@@H]1C`, the cell viability (compound concentration: 3 uM) was found to be 95.3%. With `CO[C@H]1/C=C/O[C@@]2(C)Oc3c(C)c(O)c4c(O)c(cc(O)c4c3C2=O)NC(=O)/C(C)=C\C=C\[C@H](C)[C@H](O)[C@@H](C)[C@@H](O)[C@@H](C)[C@H](OC(C)=O)[C@@H]1C` [Rifamycin SV sodium salt], the cell viability under setting [1] amounted to 105%. In the case of `C(=C\c1ccccc1)/CN1CCN(C(c2ccccc2)c2ccccc2)CC1` [Cinnarizine], the cell viability (compound concentration: 3 uM) came out at 98.7 ± 6%. Consider `COc1ccc(-c2cc(=O)c3c(O)c(OC)c(O[C@@H]4O[C@H](CO[C@@H]5O[C@@H](C)[C@H](O)[C@@H](O)[C@H]5O)[C@@H](O)[C@H](O)[C@H]4O)cc3o2)cc1` [Pectolinarin], for which the cell viability under setting [1] was 109%. As to `CCOC(=O)C1(CCCCCCOc2ccc(Cl)cc2)CO1` (stereo not given), the cell viability (compound concentration: 3 uM) was 100%. Turning to `COc1ccc(-c2cc(=O)c3ccc4ccccc4c3o2)cc1OC` [3',4'-Dimethoxy-a-naphthoflavone], the cell viability under setting [1] was 80.8%.

With `COc1ccc2c(c1)c(CC(=O)O)c(C)n2C(=O)c1ccc(Cl)cc1` [Indomethacin], the cell viability (compound concentration: 3 uM) is 96.8 ± 5.8%.

With `COc1ccc2c(c1)c(CC(=O)O)c(C)n2C(=O)c1ccc(Cl)cc1`, the cell viability (compound concentration: 3 uM) was found to be 97%. The same measure, in the same setting: under `Nc1nc2ccc(OC(F)(F)F)cc2s1` [Riluzole] stands 104 ± 15%; under `Nc1nc2ccc(OC(F)(F)F)cc2s1` [Riluzole hydrochloride], 105%; under `O=C(O)c1cc(=O)cc(C(=O)O)[nH]1` [Chelidamic acid], 95.7%.

Take `OC[C@H]1O[C@H](O[C@]2(CCl)O[C@H](CCl)[C@@H](O)[C@@H]2O)[C@H](O)[C@@H](O)[C@H]1Cl`: under “compound concentration: 3 uM”, the cell viability amounted to 97%. The same measure, in the same setting: to `CC(C)C[C@H](NC(=O)[C@H](O)[C@H](N)Cc1ccccc1)C(=O)O` [Epibestatin hydrochloride] belongs 96.1%; to `C=C1c2c(Cl)ccc(O)c2C(=O)C2=C(O)[C@]3(O)C(=O)C(C(N)=O)=C(O)[C@@H](N(C)C)[C@@H]3[C@@H](O)[C@H]12.O=C(O)c1cc(S(=O)(=O)O)ccc1O` [Meclocycline sulfosalicylate], 106%; to `C=C1c2c(Cl)ccc(O)c2C(=O)C2=C(O)[C@]3(O)C(=O)C(C(N)=O)=C(O)[C@@H](N(C)C)[C@@H]3[C@@H](O)[C@H]12.O=C(O)c1cc(S(=O)(=O)O)ccc1O`, 106%. The same measure, in the same setting: to `CC(C)(C)NCC(O)COc1cccc2c1CCC(=O)N2` (stereo not given) [Carteolol hydrochloride] belongs 108%; to `CCOC(=O)O[C@]1(C(=O)COC(=O)CC)CC[C@H]2[C@@H]3CCC4=CC(=O)C=C[C@]4(C)[C@H]3[C@@H](O)C[C@@]21C` [Prednicarbate], 96.5%.

Take `CCCCCCCCCCCCCCCC(=O)OC(CC(=O)O)C[N+](C)(C)C` (racemic) [Palmitoyl-DL-Carnitine chloride]: the cell viability (compound concentration: 3 uM) was found to be 110%. `COc1ccc2c(c1OC)C(=O)O[C@@H]2[C@H]1c2c(cc3c(c2OC)OCO3)CCN1C`: the cell viability (compound concentration: 3 uM) amounted to 105%. On to `COc1ccc2c(c1OC)C(=O)O[C@@H]2[C@H]1c2c(cc3c(c2OC)OCO3)CCN1C` [Noscapine hydrchloride], for which the cell viability (compound concentration: 3 uM) was 104%. `COc1ccc2c(c1OC)C(=O)O[C@@H]2[C@H]1c2c(cc3c(c2OC)OCO3)CCN1C` [Noscapine hydrochloride hydrate  (Narcotine)]: the cell viability under setting [1] was found to be 96%. Take `CC(=O)NCCCS(=O)(=O)O`: the cell viability (compound concentration: 3 uM) was 114%. `O=C(CCc1ccc(O)cc1)c1c(O)cc(O)cc1O` [Phloretin]: the cell viability was found to be 94.8 ± 3.4% under setting [1] and 107% (compound concentration: 3 uM). `CC[C@H](C)[C@H](N)C1=N[C@H](C(=O)N[C@@H](CC(C)C)C(=O)N[C@H](CCC(=O)O)C(=O)N[C@H](C(=O)N[C@H]2CCCCNC(=O)[C@H](CC(N)=O)NC(=O)[C@@H](CC(=O)O)NC(=O)[C@H](Cc3cnc[nH]3)NC(=O)[C@@H](Cc3ccccc3)NC(=O)[C@H]([C@@H](C)CC)NC(=O)[C@@H](CCCN)NC2=O)[C@@H](C)CC)CS1` [Bacitracin]: where the note is “compound concentration: 3 uM”, the cell viability was found to be 113%. `CC[C@H](C)[C@H](N)C1=N[C@H](C(=O)N[C@@H](CC(C)C)C(=O)N[C@H](CCC(=O)O)C(=O)N[C@H](C(=O)N[C@H]2CCCCNC(=O)[C@H](CC(N)=O)NC(=O)[C@@H](CC(=O)O)NC(=O)[C@H](Cc3cnc[nH]3)NC(=O)[C@@H](Cc3ccccc3)NC(=O)[C@H]([C@@H](C)CC)NC(=O)[C@@H](CCCN)NC2=O)[C@@H](C)CC)CS1`: the cell viability (compound concentration: 3 uM) was 106%. Consider `CC(=O)NS(=O)(=O)c1ccc(NC(=O)c2ccccc2C(=O)O)cc1`, for which the cell viability (compound concentration: 3 uM) worked out at 112%. Consider `CNC[C@H](O)c1ccc(O)c(O)c1` [(-)-Epinephrine bitartrate], for which the cell viability (compound concentration: 3 uM) was 100%. In the case of `CNC[C@H](O)c1ccc(O)c(O)c1`, the cell viability (compound concentration: 3 uM) amounted to 104%.

In the case of `CN(C)CCN1C(=O)c2ccccc2N(C)c2ccccc21` [Dibenzepine hydrochloride], the cell viability (compound concentration: 3 uM) is 125%.

`COc1ccc(OC)c(C(O)CNC(=O)CN)c1` (stereo not given): where the note is “compound concentration: 3 uM”, the cell viability was determined as 100%. For `COc1ccc(OC)c(C(O)CNC(=O)CN)c1` (stereo not given) [Midodrine hydrochloride], the cell viability (compound concentration: 3 uM) worked out at 103%. On the same count and under the same terms, under `CN1CCN(CCCN2c3ccccc3Sc3ccc(C(F)(F)F)cc32)CC1` [Trifluoperazine 2HCl] stands 113%; under `CN1CCN(CCCN2c3ccccc3Sc3ccc(C(F)(F)F)cc32)CC1` [Trifluoperazine dihydrochloride], 111.1 ± 1.1%; under `CN1CCN(CCCN2c3ccccc3Sc3ccc(C(F)(F)F)cc32)CC1`, 101% and 97.5%. For `Nc1ccn([C@H]2CC[C@@H](CO)O2)c(=O)n1` [2',3'-Dideoxycytidine], the cell viability under setting [1] came to 104%. `Nc1ccn([C@H]2CC[C@@H](CO)O2)c(=O)n1` [2',3'-dideoxycytidine]: the cell viability (compound concentration: 3 uM) turned out to be 108%. Take `Nc1ccn([C@H]2CC[C@@H](CO)O2)c(=O)n1` [2',3' - Dideoxycytidine]: the cell viability (compound concentration: 3 uM) was found to be 95.9%. On the same count and under the same terms, to `Nc1ccn([C@H]2CC[C@@H](CO)O2)c(=O)n1` [Zalcitabine] belongs 89%; to `Nc1ccn([C@H]2CC[C@@H](CO)O2)c(=O)n1`, 97.1%. As to `CN(C(=O)C(Cl)Cl)c1ccc(OC(=O)c2ccco2)cc1` [Diloxanide furoate], where the note is “compound concentration: 3 uM”, the cell viability came out at 110%. Consider `CN(C(=O)C(Cl)Cl)c1ccc(OC(=O)c2ccco2)cc1`, for which the cell viability (compound concentration: 3 uM) came out at 105 ± 1.3%. For the compound `CC(C)(C#N)c1cc(Cn2cncn2)cc(C(C)(C)C#N)c1` [Anastrozole], the cell viability (compound concentration: 3 uM) was 104 ± 4.2%. On the same count and under the same terms, to `CC(C)(C#N)c1cc(Cn2cncn2)cc(C(C)(C)C#N)c1` belongs 93.8%.

On to `Oc1c(I)cc(Cl)c2cccnc12` [Clioquinol], for which, under “compound concentration: 3 uM”, the cell viability amounted to 91.6%. The same measure, in the same setting: under `Oc1c(I)cc(Cl)c2cccnc12` stands 101%; under `CN(C)CCOC(C)(c1ccccc1)c1ccccn1` (stereo not given) [Doxylamine succinate], 104 ± 10%. Consider `CN(C)CCOC(C)(c1ccccc1)c1ccccn1` (stereo not given), for which the cell viability (compound concentration: 3 uM) came out at 99.3 ± 2.2%. On the same count and under the same terms, under `CC(=O)c1ccc2c(c1)N(CCCN(C)C)c1ccccc1S2` [Acetopromazine maleate salt] stands 114%; under `CC(=O)c1ccc2c(c1)N(CCCN(C)C)c1ccccc1S2`, 104%; under `COc1cccc(-c2cc(=O)c3ccccc3o2)c1N`, 99.1%. `CCCCCCCCCCCCCCC[C@H](O)[C@H](N)CO` (racemic) [DL-erythro-Dihydrosphingosine]: under “compound concentration: 3 uM”, the cell viability came to 91.9%. In the case of `CC(=O)[C@H]1CC[C@H]2[C@@H]3C=CC4=CC(=O)CC[C@@]4(C)[C@@H]3CC[C@]12C` [Dydrogesterone], for the setting “compound concentration: 3 uM”, the cell viability is 116%.

As for `Cc1cc(=O)[nH]c(=S)[nH]1`, where the note is “compound concentration: 3 uM”, the cell viability is 109%. Turning to `Cc1cc(O)cc(O)c1` [Orcinol], the cell viability under setting [1] came out at 91.3%.

For `COc1ccc2c(CN(C)CCC#N)cc(=O)oc2c1`, the cell viability under setting [1] is 122%. For the compound `COc1ccccc1OCC(O)CO` (stereo not given), the cell viability (compound concentration: 3 uM) worked out at 105%.

Take `COc1ccccc1OCC(O)CO` (stereo not given) [Guaifenesin]: the cell viability (compound concentration: 3 uM) was 118 ± 23%.

Take `CC[C@]1(O)C[C@H]2CN(CCc3c([nH]c4ccccc34)[C@@](C(=O)OC)(c3cc4c(cc3OC)N(C=O)[C@H]3[C@@](O)(C(=O)OC)[C@H](OC(C)=O)[C@]5(CC)C=CCN6CC[C@]43[C@@H]65)C2)C1` [Vincristine]: the cell viability (compound concentration: 3 uM) came to 93.8%. The same measure, in the same setting: under `CC[C@]1(O)C[C@H]2CN(CCc3c([nH]c4ccccc34)[C@@](C(=O)OC)(c3cc4c(cc3OC)N(C=O)[C@H]3[C@@](O)(C(=O)OC)[C@H](OC(C)=O)[C@]5(CC)C=CCN6CC[C@]43[C@@H]65)C2)C1` [Vincristine sulfate] stands 95.7%; under `CC[C@]1(O)C[C@H]2CN(CCc3c([nH]c4ccccc34)[C@@](C(=O)OC)(c3cc4c(cc3OC)N(C=O)[C@H]3[C@@](O)(C(=O)OC)[C@H](OC(C)=O)[C@]5(CC)C=CCN6CC[C@]43[C@@H]65)C2)C1`, 82.1 ± 8.7%.

Take `NC[C@@H]1O[C@H](O[C@H]2[C@@H](O)[C@H](O[C@@H]3[C@@H](O)[C@H](N)C[C@H](N)[C@H]3O[C@H]3O[C@H](CO)[C@@H](O)[C@H](O)[C@H]3N)O[C@@H]2CO)[C@H](N)[C@@H](O)[C@@H]1O`: the cell viability (compound concentration: 3 uM) amounted to 110%. Same read-out and setting: under `NC[C@@H]1O[C@H](O[C@H]2[C@@H](O)[C@H](O[C@@H]3[C@@H](O)[C@H](N)C[C@H](N)[C@H]3O[C@H]3O[C@H](CO)[C@@H](O)[C@H](O)[C@H]3N)O[C@@H]2CO)[C@H](N)[C@@H](O)[C@@H]1O` [Paromomycin sulfate] stands 97.5 ± 11%. The same measure, in the same setting: to `Cc1cccc(C)c1OCC(C)N` (stereo not given) [Mexiletine hydrochloride] belongs 96.2%; to `Cc1cccc(C)c1OCC(C)N` (stereo not given) [Mexiletene hydrochloride], 104%; to `Cc1cccc(C)c1OCC(C)N` (stereo not given), 102%. Still for that read-out and setting: under `COc1ccccc1N1CCN(CCCCN2C(=O)c3ccccc3C2=O)CC1` [NAN-190 hydrobromide] stands 111%.

These data come from the supplement of paper PMC3682954.
